Laboratory results reported in PMC11651612.
These are yes or no findings as the source states them, for the method shown. Binding seen in cells or lysates may run through a third protein. These calls come from enrichment with a bait or labelling near it, and not all partners need be listed. Blank lines part the entries; values can stand above or below the substance they belong to.

Chains of the proteins cited; added tags and fusions are not shown. Lines headed by an entry give the natural chain unless they say otherwise; changes in a name come on top.
UniProt J9VQ58: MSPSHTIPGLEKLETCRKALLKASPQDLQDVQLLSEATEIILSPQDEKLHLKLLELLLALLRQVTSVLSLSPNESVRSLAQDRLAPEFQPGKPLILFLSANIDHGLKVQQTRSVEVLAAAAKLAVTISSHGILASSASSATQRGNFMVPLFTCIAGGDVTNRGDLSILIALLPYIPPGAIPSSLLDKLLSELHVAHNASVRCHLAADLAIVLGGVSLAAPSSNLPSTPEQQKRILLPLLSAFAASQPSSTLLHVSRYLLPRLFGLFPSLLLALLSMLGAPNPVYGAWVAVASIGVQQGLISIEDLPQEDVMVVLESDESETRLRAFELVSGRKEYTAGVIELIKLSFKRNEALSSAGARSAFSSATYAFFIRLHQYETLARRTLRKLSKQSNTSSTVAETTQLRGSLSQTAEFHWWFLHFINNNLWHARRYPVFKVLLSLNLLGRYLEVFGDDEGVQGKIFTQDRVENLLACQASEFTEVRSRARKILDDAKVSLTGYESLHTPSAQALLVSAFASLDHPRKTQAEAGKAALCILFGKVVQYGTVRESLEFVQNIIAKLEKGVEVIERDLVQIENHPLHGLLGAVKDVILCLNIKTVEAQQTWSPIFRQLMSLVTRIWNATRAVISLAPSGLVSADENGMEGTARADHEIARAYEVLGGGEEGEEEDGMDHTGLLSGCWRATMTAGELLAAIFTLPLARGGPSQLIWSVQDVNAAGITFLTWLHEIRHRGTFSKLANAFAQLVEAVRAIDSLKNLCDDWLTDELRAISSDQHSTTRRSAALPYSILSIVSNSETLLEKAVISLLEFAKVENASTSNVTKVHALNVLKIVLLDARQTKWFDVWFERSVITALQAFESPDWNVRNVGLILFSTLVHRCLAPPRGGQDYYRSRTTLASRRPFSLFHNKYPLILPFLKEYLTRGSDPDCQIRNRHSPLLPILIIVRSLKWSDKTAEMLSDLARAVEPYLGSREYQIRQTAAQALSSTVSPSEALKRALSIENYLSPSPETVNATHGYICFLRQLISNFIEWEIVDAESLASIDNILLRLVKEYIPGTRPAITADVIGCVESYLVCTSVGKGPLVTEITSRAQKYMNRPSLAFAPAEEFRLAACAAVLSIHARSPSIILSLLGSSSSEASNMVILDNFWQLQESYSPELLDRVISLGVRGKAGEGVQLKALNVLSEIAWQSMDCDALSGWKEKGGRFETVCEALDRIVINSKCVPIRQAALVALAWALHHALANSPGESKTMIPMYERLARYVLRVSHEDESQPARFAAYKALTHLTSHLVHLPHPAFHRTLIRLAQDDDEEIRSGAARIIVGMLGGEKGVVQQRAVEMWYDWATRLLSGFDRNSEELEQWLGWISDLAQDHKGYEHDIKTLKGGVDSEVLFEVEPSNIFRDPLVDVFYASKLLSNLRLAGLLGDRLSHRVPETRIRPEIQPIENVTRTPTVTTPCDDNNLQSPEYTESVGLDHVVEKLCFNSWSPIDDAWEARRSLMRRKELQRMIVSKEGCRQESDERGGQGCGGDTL
UniProt J9VW50: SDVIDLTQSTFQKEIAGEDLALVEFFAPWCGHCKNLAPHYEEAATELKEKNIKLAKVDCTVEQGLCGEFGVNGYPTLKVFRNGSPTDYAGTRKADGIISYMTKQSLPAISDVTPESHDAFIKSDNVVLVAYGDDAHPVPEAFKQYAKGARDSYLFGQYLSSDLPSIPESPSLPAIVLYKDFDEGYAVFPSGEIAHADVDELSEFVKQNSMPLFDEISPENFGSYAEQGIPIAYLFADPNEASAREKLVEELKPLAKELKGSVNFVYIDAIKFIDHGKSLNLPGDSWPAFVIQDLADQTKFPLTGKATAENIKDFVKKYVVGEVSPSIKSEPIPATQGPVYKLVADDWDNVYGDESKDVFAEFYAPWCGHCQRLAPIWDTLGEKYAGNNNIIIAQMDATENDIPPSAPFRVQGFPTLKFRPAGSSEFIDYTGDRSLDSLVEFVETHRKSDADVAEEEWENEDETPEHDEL
UniProt J9VSM5: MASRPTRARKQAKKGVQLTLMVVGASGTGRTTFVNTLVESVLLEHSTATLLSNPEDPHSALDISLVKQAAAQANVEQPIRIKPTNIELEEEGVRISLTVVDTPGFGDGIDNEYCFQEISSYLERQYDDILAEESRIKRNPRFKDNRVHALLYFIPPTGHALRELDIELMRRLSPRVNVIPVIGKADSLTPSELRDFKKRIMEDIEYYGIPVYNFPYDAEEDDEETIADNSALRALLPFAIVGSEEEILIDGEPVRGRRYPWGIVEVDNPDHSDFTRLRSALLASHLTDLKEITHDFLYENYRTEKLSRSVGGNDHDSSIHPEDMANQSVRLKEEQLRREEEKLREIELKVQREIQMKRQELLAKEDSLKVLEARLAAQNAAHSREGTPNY
UniProt J9VF80: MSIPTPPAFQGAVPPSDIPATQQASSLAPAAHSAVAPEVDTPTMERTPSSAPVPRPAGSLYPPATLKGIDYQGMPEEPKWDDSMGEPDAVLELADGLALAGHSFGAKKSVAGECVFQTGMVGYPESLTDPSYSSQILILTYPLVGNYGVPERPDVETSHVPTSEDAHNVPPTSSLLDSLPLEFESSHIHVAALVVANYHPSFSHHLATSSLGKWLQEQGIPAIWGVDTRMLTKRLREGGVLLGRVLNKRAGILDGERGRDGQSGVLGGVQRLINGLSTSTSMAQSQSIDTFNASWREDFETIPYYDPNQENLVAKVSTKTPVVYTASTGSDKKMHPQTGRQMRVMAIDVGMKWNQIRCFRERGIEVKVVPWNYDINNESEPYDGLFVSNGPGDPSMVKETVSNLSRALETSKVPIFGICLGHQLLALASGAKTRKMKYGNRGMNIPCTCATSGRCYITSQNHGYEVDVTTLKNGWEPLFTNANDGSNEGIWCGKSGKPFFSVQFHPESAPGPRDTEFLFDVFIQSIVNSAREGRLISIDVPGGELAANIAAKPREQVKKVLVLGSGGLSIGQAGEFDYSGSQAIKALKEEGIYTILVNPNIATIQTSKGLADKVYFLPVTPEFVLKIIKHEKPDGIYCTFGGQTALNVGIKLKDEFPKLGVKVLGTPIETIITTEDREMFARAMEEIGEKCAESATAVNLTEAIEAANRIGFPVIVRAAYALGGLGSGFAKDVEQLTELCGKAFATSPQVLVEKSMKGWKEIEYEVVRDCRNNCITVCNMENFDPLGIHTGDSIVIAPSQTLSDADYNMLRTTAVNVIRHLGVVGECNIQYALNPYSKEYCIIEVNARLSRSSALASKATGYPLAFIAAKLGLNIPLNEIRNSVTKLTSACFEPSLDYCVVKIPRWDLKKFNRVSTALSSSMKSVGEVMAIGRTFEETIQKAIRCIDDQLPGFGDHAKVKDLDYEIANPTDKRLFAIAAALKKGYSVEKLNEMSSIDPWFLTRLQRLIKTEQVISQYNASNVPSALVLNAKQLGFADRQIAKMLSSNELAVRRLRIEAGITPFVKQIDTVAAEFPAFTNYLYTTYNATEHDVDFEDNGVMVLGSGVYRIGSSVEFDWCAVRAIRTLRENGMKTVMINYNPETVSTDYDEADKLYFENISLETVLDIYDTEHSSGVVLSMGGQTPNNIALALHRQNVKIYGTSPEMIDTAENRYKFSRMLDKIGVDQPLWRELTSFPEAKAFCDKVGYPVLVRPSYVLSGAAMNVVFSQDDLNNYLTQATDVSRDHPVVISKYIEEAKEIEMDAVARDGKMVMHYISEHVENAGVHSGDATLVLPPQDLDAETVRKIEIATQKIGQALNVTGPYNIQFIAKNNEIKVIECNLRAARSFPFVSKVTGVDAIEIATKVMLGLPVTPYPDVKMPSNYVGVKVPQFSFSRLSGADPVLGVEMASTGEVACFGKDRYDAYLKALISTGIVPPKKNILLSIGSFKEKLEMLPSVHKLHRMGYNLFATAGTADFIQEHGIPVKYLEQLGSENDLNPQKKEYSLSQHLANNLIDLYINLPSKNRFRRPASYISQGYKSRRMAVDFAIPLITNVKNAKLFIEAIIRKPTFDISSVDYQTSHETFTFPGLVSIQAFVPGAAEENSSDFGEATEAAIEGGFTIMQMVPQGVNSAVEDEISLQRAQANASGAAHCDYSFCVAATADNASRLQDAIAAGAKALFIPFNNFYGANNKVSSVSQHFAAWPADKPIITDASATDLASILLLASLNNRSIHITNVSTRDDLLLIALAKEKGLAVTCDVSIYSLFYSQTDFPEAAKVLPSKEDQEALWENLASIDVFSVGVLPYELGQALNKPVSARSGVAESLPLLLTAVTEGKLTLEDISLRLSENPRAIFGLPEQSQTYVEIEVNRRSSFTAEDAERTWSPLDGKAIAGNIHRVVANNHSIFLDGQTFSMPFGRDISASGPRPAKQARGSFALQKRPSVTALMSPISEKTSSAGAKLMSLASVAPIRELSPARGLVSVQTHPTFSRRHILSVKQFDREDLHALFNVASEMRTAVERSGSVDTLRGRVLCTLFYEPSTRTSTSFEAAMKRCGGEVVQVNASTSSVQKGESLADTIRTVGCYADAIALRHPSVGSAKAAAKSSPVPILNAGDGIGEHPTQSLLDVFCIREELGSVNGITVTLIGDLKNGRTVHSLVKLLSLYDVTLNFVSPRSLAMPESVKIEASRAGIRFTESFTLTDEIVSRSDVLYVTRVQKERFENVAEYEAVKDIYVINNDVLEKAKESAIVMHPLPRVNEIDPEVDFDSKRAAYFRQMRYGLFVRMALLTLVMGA
UniProt J9VR06: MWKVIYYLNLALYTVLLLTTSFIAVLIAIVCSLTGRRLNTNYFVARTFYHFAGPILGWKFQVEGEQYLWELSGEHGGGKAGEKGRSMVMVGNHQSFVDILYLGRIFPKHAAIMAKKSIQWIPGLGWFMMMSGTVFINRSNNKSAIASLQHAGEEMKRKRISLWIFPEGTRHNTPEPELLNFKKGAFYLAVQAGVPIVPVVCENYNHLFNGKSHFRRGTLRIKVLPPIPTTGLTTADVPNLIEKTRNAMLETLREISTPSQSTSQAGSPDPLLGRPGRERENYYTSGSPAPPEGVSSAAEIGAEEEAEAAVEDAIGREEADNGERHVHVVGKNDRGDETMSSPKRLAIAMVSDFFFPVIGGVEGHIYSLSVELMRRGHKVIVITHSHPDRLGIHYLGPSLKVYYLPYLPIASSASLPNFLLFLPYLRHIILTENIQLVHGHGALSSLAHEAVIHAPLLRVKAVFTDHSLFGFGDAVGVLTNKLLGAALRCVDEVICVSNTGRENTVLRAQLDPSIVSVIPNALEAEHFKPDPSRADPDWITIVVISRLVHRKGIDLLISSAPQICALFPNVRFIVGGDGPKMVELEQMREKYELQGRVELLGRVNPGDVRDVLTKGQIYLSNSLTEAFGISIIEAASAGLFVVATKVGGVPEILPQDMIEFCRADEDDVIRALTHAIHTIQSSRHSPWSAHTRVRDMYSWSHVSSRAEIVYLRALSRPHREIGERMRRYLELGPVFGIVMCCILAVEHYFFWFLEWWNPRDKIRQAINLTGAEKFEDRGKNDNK
UniProt J9VXH6: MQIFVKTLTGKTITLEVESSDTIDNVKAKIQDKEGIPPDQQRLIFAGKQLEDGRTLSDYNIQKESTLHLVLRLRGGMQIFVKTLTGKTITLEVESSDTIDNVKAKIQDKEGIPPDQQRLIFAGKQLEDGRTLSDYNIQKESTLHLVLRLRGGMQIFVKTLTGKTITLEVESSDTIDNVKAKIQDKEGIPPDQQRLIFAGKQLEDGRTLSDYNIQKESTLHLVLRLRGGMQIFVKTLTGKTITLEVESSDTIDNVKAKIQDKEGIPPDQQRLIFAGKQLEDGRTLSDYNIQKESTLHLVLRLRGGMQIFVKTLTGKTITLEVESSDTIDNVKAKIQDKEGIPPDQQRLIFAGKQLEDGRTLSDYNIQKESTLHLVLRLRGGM
UniProt J9VKQ6: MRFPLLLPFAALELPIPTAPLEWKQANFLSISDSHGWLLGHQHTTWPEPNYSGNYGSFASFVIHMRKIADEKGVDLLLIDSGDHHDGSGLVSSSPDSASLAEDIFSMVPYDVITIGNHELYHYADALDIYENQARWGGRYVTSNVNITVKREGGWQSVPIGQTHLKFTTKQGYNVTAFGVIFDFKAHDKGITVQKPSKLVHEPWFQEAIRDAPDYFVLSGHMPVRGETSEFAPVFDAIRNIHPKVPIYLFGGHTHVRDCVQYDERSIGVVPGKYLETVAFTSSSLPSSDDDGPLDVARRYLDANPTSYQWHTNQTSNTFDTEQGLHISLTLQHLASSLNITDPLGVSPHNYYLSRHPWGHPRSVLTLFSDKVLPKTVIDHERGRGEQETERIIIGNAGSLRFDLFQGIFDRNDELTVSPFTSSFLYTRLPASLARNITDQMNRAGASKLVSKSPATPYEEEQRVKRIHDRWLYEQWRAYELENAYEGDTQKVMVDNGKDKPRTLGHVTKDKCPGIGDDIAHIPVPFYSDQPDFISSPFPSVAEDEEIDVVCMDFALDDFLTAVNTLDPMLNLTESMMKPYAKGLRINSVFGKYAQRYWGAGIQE

Key:
[1] = molecular target: T1, Cdc10-mCherry (C. neoformans) (UniProt J9VMT9); assay: affinity purification with mass spectrometry; mCherry-tagged septin captured from C. neoformans lysate on RFP-Trap agarose, 4 h at 4°C, washed with TBS with 2 M urea pH 7.5; GeLC-MS/MS; untagged H99 as negative control; hits logFC >2 and adjusted p <0.001 (text-named hits <0.05); exponential cultures at ~25°C or shifted to 37°C for 2 h; N = 5
T1 sequence: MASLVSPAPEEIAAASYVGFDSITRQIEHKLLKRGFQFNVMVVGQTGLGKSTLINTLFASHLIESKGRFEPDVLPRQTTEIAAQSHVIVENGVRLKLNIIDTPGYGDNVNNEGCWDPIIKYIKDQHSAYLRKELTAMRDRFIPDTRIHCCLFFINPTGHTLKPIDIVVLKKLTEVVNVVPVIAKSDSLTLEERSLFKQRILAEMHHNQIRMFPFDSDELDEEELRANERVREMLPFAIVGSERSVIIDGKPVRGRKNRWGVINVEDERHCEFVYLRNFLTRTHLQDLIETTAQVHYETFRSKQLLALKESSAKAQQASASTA

[2] = molecular target: T2, Cdc3-mCherry (C. neoformans) (UniProt J9VUF2); assay: as above
T2 sequence: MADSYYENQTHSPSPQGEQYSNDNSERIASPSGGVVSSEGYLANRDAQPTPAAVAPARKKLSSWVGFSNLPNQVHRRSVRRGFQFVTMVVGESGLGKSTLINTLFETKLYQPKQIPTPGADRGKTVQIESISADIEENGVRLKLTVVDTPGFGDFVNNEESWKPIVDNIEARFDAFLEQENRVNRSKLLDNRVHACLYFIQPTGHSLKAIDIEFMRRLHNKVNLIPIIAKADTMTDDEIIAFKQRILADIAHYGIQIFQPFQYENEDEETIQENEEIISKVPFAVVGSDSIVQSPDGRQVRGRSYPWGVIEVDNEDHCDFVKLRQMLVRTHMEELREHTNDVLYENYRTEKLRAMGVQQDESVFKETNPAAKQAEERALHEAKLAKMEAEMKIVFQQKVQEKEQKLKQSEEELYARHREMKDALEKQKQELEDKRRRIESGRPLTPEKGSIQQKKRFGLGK

[3] = molecular target: T1, Cdc10-mCherry (C. neoformans); assay: affinity purification with mass spectrometry
[4] = molecular target: T1, Cdc10-mCherry (C. neoformans); assay: affinity purification with mass spectrom
[5] = molecular target: T2, Cdc3-mCherry (C. neoformans); assay: affinity purification with mass spectrom
[6] = molecular target: T2, Cdc3-mCherry (C. neoformans); assay: affinity purification with mass spectrometry

Substance: Cytoplasmic protein (CNAG_02286) (from UniProt J9VQ58 1-1525)
binding [3]: binds

Substance: Oxidoreductase (CNAG_07782) (from UniProt J9VS16)
binding [3]: binds
binding [6]: binds

Substance: Protein disulfide-isomerase (from UniProt J9VW50)
binding [2]: binds

Substance: Carboxypeptidase A4 (from UniProt J9VV13)
binding [6]: binds

Substance: Septin ring protein CDC11 (from UniProt J9VSM5)
binding [1]: binds
binding [2]: binds

Substance: Carbamoyl-phosphate synthase, large subunit (from UniProt J9VF80 1-2333)
binding [2]: binds

Other lines, results leading:

binding [1]: binds
binding [2]: binds
Substance: Microtubule Associated protein (from UniProt J9VQP8 1-2208)

binding [1]: binds
Substance: Hsp72-like protein (from UniProt J9VU43 1-642)

binding [4]: binds
binding [5]: binds
Substance: 1-acyl-sn-glycerol-3-phosphate acyltransferase (from UniProt J9VR06)

binding [2]: binds
Substance: Polyubiquitin (CNAG_01920) (from UniProt J9VXH6)

binding [5]: binds
Substance: Vacuolar protein (CNAG_01314) (from UniProt J9VKQ6)
